According to patent US8691187B2, “Imaging agents for detecting neurological disorders” (Eli Lilly and Company, priority 2009, dated 2014):

Tested on: human AD brain slices
Experiment: Human AD brain section autoradiography with F-18 tracer
Assay type: binding
From the text: Furthermore, the selectivity can be evaluated in brains containing only Aβ plaques/no tau aggregates, Aβ plaques/and tau aggregates, and control brains. Unfortunately, there are no AD brains with only tau and no Aβ present. By testing radiolabeled tracers in these brain sections, one can more quantitative evaluate the relative binding strength (signal strength) and selectivity of various test compounds as they all contain the same radioactive tracer. For examples, if a test tracer binds only to tau, and not amyloid, it should show no signal in the Aβ plaques only brain sections. If a compound binds only to amyloid, it should show uptake in both types of brains. The difficulty of identifying and further quantifying selective compounds lies in the relative abundance of amyloid vs. tau, which is difficult to measure.
Human AD Brain Section Autoradiography
5 micron thick human AD brain slices were first examined using antibodies for Aβ and Tau to determine whether the tested human brain contains Aβ and Tau. Thus, three types of human brain slices were selected for autoradiography: Aβ+/Tau+; Aβ+/Tau−; and Aβ−/Tau−(control).
The experimental protocol is as follows:
Pick one brain section for each type and air-dry in hood. […] The imaging plates were then scanned and the signal was measured using Fuji software to produce an autoradiography image of the brain section. […]

| Structure (SMILES) | background (normal brain 32566) [PSL/mm2] |
| --- | --- |
| FC1CCN(c2ccn3c(n2)nc2ccccc23)CC1 [Compound T777, 2-(4-fluoropiperidin-1-yl)benzo[4,5]imidazo[1,2-a]pyrimidine] | 21 |
| FCCC1CCN(c2ccn3c(n2)nc2ccccc23)CC1 [Compound T808, 2-(4-(2-fluoroethyl)piperidin-1-yl)benzo[4,5]imidazo[1,2-a]pyrimidine] | 42 |
